Results reported in publication PMC2749441.
These are yes or no findings as the source states them, for the method shown. In cells and extracts the contact can be indirect. A yes stands for co-enrichment or nearness to the bait. Other partners may have been found.

Chains of the proteins cited; added tags and fusions are not shown. Residues count along the entry.
UniProt Q9QUG3, residues 26-155: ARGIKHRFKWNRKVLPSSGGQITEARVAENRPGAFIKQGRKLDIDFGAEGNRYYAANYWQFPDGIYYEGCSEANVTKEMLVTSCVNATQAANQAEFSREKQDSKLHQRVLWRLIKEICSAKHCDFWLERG

What was measured:
[1] = target: FLAG-Dpl (mouse) (UniProt Q9QUG3); assay: affinity purification with mass spectrometry
[2] = target: FLAG-Dpl (mouse) (UniProt Q9QUG3); assay: affinity purification with mass spectrom

B1: endogenous wt Sho (protein, UniProt Q8BWU1 25-122)
chain: KGGRGGARGSARGVRGGARGASRVRVRPAPRYGSSLRVAAAGAAAGAAAGVAAGLATGSGWRRTSGPGELGLEDDENGAMGGNGTDRGVYSYWAWTSG
- binding [1]: binds

B2: brain abundant, membrane attached signal protein 1 (protein, UniProt Q91XV3 1-226)
chain: MGGKLSKKKKGYNVNDEKAKDKDKKAEGAGTEEEGTPKESEPQAAADATEVKESTEEKPKDAADGEAKAEEKEADKAAAAKEEAPKAEPEKSEGAAEEQPEPAPAPEQEAAAPGPAAGGEAPKAGEASAESTGAADGAAPEEGEAKKTEAPAAAGPEAKSDAAPAASDSKPSSAEPAPSSKETPAASEAPSSAAKAPAPAAPAAAEPQAEAPAAAASSEQSVAVKE
- binding [2]: binds

B3: hypoxia up-regulated 1 (protein, UniProt Q9JKR6 33-999)
chain: LAVMSVDLGSESMKVAIVKPGVPMEIVLNKESRRKTPVTVTLKENERFLGDSAAGMAIKNPKATLRYFQHLLGKQADNPHVALYRSRFPEHELIVDPQRQTVRFQISPQLQFSPEEVLGMVLNYSRSLAEDFAEQPIKDAVITVPAFFNQAERRAVLQAARMAGLKVLQLINDNTATALSYGVFRRKDINSTAQNVMFYDMGSGSTVCTIVTYQTVKTKEAGMQPQLQIRGVGFDRTLGGLEMELRLREHLAKLFNEQRKGQKAKDVRENPRAMAKLLREANRLKTVLSANADHMAQIEGLMDDVDFKAKVTRVEFEELCADLFDRVPGPVQQALQSAEMSLDQIEQVILVGGATRVPKVQEVLLKAVGKEELGKNINADEAAAMGAVYQAAALSKAFKVKPFVVRDAVIYPILVEFTREVEEEPGLRSLKHNKRVLFSRMGPYPQRKVITFNRYSHDFNFHINYGDLGFLGPEDLRVFGSQNLTTVKLKGVGESFKKYPDYESKGIKAHFNLDESGVLSLDRVESVFETLVEDSPEEESTLTKLGNTISSLFGGGTSSDAKENGTDAVQEEEESPAEGSKDEPAEQGELKEEAEPPAEETSQPPPSEPKGDAAREGEKPDEKESGDKPEAQKPNEKGQAGPEGAAPAPEEDKKPKPARKQKMVEEIGVELAVLDLPDLPEDELARSVQKLEELTLRDLEKQEREKAANSLEAFIFETQDKLYQPEYQEVSTEEQREEISGKLSATSTWLEDEGFGATTVMLKDKLAELRKLCQGLFFRVEERRKWPERLSALDNLLNHSSIFLKGARLIPEMDQVFTEVEMTTLEKVINDTWAWKNATLAEQAKLPATEKPVLLSKDIEAKMMALDREVQYLLNKAKFTKPRPRPKDKNGTRAEPPLNASAGDQEEKVIPPAGQTEEAKPILEPDKEETGTEPADSEPLELGGPGAGPEQEEQSAGQKRPSKNDEL
- binding [2]: binds
